Results taken from PubChem BioAssay AID2685 (National Center for Advancing Translational Sciences (NCATS), 2010).
Hit rate of the full screen: of about 320,000 compounds, about 2,100 (0.66%) were called active. Inconclusive results, whose numbers are uncertain, are shown with a selection of clear calls. Calls come from the whole dose curve; as a rule, active = well fitted inhibition curve with a large enough effect in the signal ratio, with a control signal flat (not every such curve was filed as active); inconclusive = small, poorly fitted or top-dose-only effect, or effect the other way, or a change in a side signal; inactive = flat fitted curve, though single readings scatter; the % refers to the signal ratio. Potencies beside an inconclusive call are fits to weak or partial responses and may not hold up.

Experiment: qHTS Assay for Lipid Storage Modulators in Drosophila S3 Cells
Settings: BODIPY lipid droplet fluorescence, 18-24 h, cells fed with added oleic acid; lipid storage change, negative = inhibition: at 46.1 µM (top of the series) unless noted
Method in brief: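 Drosophila S3 cells got compounds at several concentrations plus oleic acid (400 uM solution). Laser-scanning cytometry with 488 nm excitation read lipid droplets at 500-530 nm and cells at 575-640 nm. Percent activity was relative to 20 uM Triacsin C.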
% is set by controls: 0 for no effect and ±100 for the full control effect; potency is the fitted concentration of half-maximal effect.

Row | Structure (SMILES) | lipid storage change, negative = inhibition | Potency
1 | Cn1c(=O)[nH]c(=O)c2c1nc(SCC(=O)O)n2Cc1ccccc1 | inconclusive: 34.7% | –
2 | CCOC(=O)C(NC(C)=O)C(OC(C)=O)c1cccc(N(CCO)CCO)c1 (centres undefined) | inconclusive: 12.9% | –
3 | O=C1CCN(CCc2ccccc2)CCN1[C@H](CSc1ccccc1)Cc1ccccc1 | inconclusive: 24.3% | –
4 | COc1ccc(C(=O)N(CCc2ccccc2)Cc2cccs2)c(OC)c1 | – | active: 13 µM
5 | O=C(NC1CCCCC1)C(c1ccccc1)N(C(=O)c1csnn1)C1CC1 (centres undefined) | – | inconclusive: 6.51 µM [falling, full curve, poor fit]
6 | CCCCC[C@H]1CN(Cc2ccc(OC)cc2)C(=O)[C@@H]1CC(=O)NCc1ccccc1 | – | inconclusive: 29.1 µM [falling, single point]
7 | COc1ccc(OCc2cc(C(=O)NC3CCOC(C)(C)C3)no2)c2ccccc12 (centres undefined) | – | inconclusive: 29.1 µM [falling, single point]
8 | CC(=O)Nc1ccc(NC(=O)COc2ccc(-c3ccc(C#N)cc3)cc2)cc1 | inconclusive: 7.84% | –
9 | CCNC(=S)Nc1cc(OCC)c(NC(=O)c2ccco2)cc1OCC | inconclusive: 25.5% | –
10 | CN(C1CC(C)(C)NC(C)(C)C1)S(=O)(=O)CC12CCC(CC1=O)C2(C)C (centres undefined) | – | inconclusive: 0.291 µM [falling, full curve, poor fit]
11 | O=S(=O)(c1ccc2[nH]c3c(c2c1)CCCC3)N1CCCCC1 | inconclusive: -60.3% | –
12 | CS(=O)(=O)N(CC(=O)Nc1ccccc1)c1cccc(Cl)c1Cl | inconclusive: -14.9% | –
13 | COc1cccc(C=Nc2ccccc2C(=O)Nc2ccccc2)c1O | inconclusive: 41.3% | –
14 | CC1CCN(c2ccc([N+](=O)[O-])c(SCCO)c2)CC1 | inconclusive: 8.57% | –
15 | Fc1ccc(-c2n[nH]c(=S)n2-c2ccc3c(c2)OCCO3)cc1 | inconclusive: -8.07% | –
16 | COC(=O)CSCC(=O)Nc1cc2c(cc1C(C)=O)OCO2 | inconclusive: 33.1% | –
17 | COc1ccc(C2/C=C\CN(C(=O)C3CCCC3)[C@H](Cc3ccccc3)C(=O)N2Cc2ccc(F)cc2)cc1 (some centres undefined) | inconclusive: -19% | –
18 | Cc1cccc(OCC(=O)NC2CCCC2)c1 | inconclusive: 68.2% | –
19 | CN(CC(=O)Nc1cccc(F)c1)C(=O)c1cc(S(=O)(=O)N2CCN(c3ccccc3)CC2)ccc1Cl | – | inconclusive: 5.8 µM [falling, partial curve, poor fit]
20 | CCC(C)c1ccccc1N1CC(C(=O)N(C)CC(=O)Nc2cccc(F)c2)CC1=O (centres undefined) | inconclusive: 0.0771% | –
21 | O=C(/C=C/c1ccc(Br)o1)NCc1ccccc1 | inconclusive: 44.1% | –
22 | COc1ccc(/C=C/C(=O)N(C)C2CCS(=O)(=O)C2)cc1 (centres undefined) | inconclusive: 18.8% | –
23 | COc1cccc(N2CC(NS(=O)(=O)c3ccc(Cl)cc3)CC2=O)c1 (centres undefined) | – | inconclusive: 14.6 µM [activator, single point]
24 | COc1ccccc1NC(=O)Cc1nn(C)c(=O)c2ccccc12 | inconclusive: -64.9% | –
25 | O=[N+]([O-])c1cc([N+](=O)[O-])c(Oc2ccc(Br)cc2Br)cc1NN1CCCCC1 | inconclusive: -18% | –

Row | Structure (SMILES) | lipid storage change, negative = inhibition | Potency
26 | CSCCC(NC(=O)c1ccc(C)o1)C(=O)O (centres undefined) | – | inconclusive: 1.3 µM [activator, full curve]
27 | Cc1c(Cl)cccc1NC(=O)Nc1cccnc1 | inconclusive: 137% | –
28 | Cc1cc(C)cc(NC(=S)N2CCC(NC(=O)C3CC3)CC2)c1 | – | inconclusive: 0.651 µM [activator, single point]
29 | CC1=C(C(=O)N2CCOCC2)C(c2ccsc2)C2=C(CCCC2=O)N1 (centres undefined) | – | inconclusive: 0.0231 µM [falling, full curve]
30 | COc1ccc(/C=C2\CC/C(=C\c3ccc(OC)c(OC)c3)C2=O)cc1OC | inconclusive: 48.2% | –
31 | COc1ccccc1NC(=O)C1CCN(C(=O)C2CC(=O)N(c3ccc(C)cc3)C2)CC1 (centres undefined) | – | inconclusive: 29.1 µM [activator, single point]
32 | O=C(O)c1ccc(C2Nc3ccccc3C(=O)N2Cc2ccccc2)cc1 (centres undefined) | inconclusive: -100% | –
33 | O=C(CSc1nnc(-c2cccnc2)n1CCN1CCCCC1)Nc1cccc(Cl)c1 | inactive | –
34 | CCC(C)Oc1cccc(OCCCCN2C(=O)NC(C)(C)C2=O)c1 (centres undefined) | inconclusive: 53.8% | –
35 | COc1ccccc1/C=C/C(=O)OCc1nc2ccccc2c(=O)[nH]1 | inconclusive: -79.1% | –
36 | O=C(NCc1ccco1)C(c1ccco1)N(CCc1ccccc1)C(=O)Cn1nnc2ccccc21 (centres undefined) | inconclusive: -2.35% | –
37 | O=C(CN1C(=O)/C(=C/c2ccc(Cl)cc2)SC1=S)NC1C=CS(=O)(=O)C1 (centres undefined) | – | inconclusive: 29.1 µM [falling, single point]
38 | C=CCNC(=S)N/N=C/c1ccc(OCc2ccccc2Cl)cc1 | – | inconclusive: 16.4 µM [activator, partial curve, poor fit]
39 | CC(C)(C)c1nnc(NC(=O)Cc2ccccc2[N+](=O)[O-])s1 | inconclusive: 26.4% | –
40 | CN=CC1=C(O)c2ccccc2C1=O | inconclusive: 3.67% | –
41 | O=C(O)CCn1ncc2ccccc2c1=O | inconclusive: 32.3% | –
42 | Cc1ccc(C(=O)OCC(=O)N2C(C)CCCC2C)s1 (centres undefined) | inconclusive: 14.1% | –
43 | Cc1nc2ccc(NC(=O)NCCCO)cc2s1 | inconclusive: 60.4% | –
44 | O=C(NCCCN1CCOCC1)c1cc(-c2ccc(F)cc2)nc2ccccc12 | – | inconclusive: 0.058 µM [falling, full curve, poor fit]
45 | Cc1ccc(CN2CCCC(C(=O)N3CCCC3)C2)cc1 (centres undefined) | inconclusive: 38.4% | –
46 | COc1ccccc1C(=O)NNc1ncc(C)s1 | – | inconclusive: 6.51 µM [cytotoxic, single point]
47 | Fc1ccc(CSc2ccc3nnc(-c4ccccn4)n3n2)cc1 | inconclusive: 25.2% | –
48 | CCN(CC)CCN(C(=O)C1=COCCO1)c1nc2c(OC)ccc(OC)c2s1 | inconclusive: 30.1% [activator] [at 0.00295 µM] | –
49 | O=c1[nH]nc(N/N=C/c2ccc(Cl)cc2Cl)c(=O)[nH]1 | inconclusive: -5.55% | –
